Measurements: patent publication US20250145665A1, “MACROCYCLIC PEPTIDES USEFUL AS MODULATORS OF TNF ALPHA” (Bristol-Myers Squibb Company, priority 2023, published 2025)
Some entries share one result that the patent states for a list of compounds. Positions of bridges follow the written chain, without caps; N, C: chain ends. Non-standard residues stand in square brackets, D forms with d. Residues, ends and D or L forms follow the SMILES beside them. Ala(morpholin-4-yl) = N[C@@H](CN1CCOCC1)C(=O)O; Phe(4-CH2NH2) = NCc1ccc(C[C@H](N)C(=O)O)cc1; Bip = N[C@@H](Cc1ccc(-c2ccccc2)cc1)C(=O)O; Phe(3-OMe) = COc1cccc(C[C@H](N)C(=O)O)c1; Phe(4-NH2) = Nc1ccc(C[C@H](N)C(=O)O)cc1; Phe(4-F) = N[C@@H](Cc1ccc(F)cc1)C(=O)O; Phe(2-F) = N[C@@H](Cc1ccccc1F)C(=O)O; Val(3-OH) = CC(C)(O)[C@H](N)C(=O)O; 3Pal = N[C@@H](Cc1cccnc1)C(=O)O; Sar = CNCC(=O)O

The chains behind the UniProt entries cited, without tags or fusion partners. Residues count along the entry.
UniProt P01375, 77-233 limits assumed: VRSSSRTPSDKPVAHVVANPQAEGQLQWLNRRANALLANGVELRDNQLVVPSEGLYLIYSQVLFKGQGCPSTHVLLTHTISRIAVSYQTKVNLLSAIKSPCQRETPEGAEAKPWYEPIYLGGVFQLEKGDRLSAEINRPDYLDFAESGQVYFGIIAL

Biological target: TNFα (Homo sapiens, UniProt P01375)
Experiment: TNF-Induced HEK-Blue Assay
Assay type: cell-based
Settings: summary statement for all examples; read-out: IC50 values measured in the TNF induced HEK-Blue assay

IC50, ≤ 25 µM:
CC(C)C[C@@H]1NC(=O)[C@H](CCCNC(=N)N)NC(=O)[C@H](C(C)C)NC(=O)[C@@H]2CCCN2C(=O)[C@H](Cc2ccc(CN)cc2)NC(=O)[C@H](CCCNC(=N)N)NC(=O)[C@H](CC(=O)O)NC(=O)[C@@H]2CCCN2C(=O)CN(C)C(=O)[C@H](Cc2ccc(-c3ccccc3)cc2)NC(=O)[C@H](Cc2ccc(-c3ccccc3)cc2)NC(=O)[C@H](CN2CCOCC2)NC(=O)CSC[C@@H](C(=O)NCC(N)=O)NC1=O [Example 51] ({CH2CO}-[Ala(morpholin-4-yl)][Bip][Bip][Sar]PDR[Phe(4-CH2NH2)]PVRLCG-NH2; thioether N-13), CC(C)C[C@@H]1NC(=O)[C@H](CCCNC(=N)N)NC(=O)[C@H](C(C)C)NC(=O)[C@@H]2CCCN2C(=O)[C@H](Cc2ccc(F)cc2)NC(=O)[C@H](CCCNC(=N)N)NC(=O)[C@H](CC(=O)O)NC(=O)[C@@H]2CCCN2C(=O)CN(C)C(=O)[C@H](Cc2ccc(-c3ccccc3)cc2)NC(=O)[C@H](Cc2ccc(-c3ccccc3)cc2)NC(=O)[C@H](CN2CCOCC2)NC(=O)CSC[C@@H](C(=O)NCC(N)=O)NC1=O [Example 52] ({CH2CO}-[Ala(morpholin-4-yl)][Bip][Bip][Sar]PDR[Phe(4-F)]PVRLCG-NH2; thioether N-13), CC(C)C[C@@H]1NC(=O)[C@H](CCCNC(=N)N)NC(=O)[C@H](C(C)C)NC(=O)[C@@H]2CCCN2C(=O)[C@H](Cc2ccccc2F)NC(=O)[C@H](CCCNC(=N)N)NC(=O)[C@H](CC(=O)O)NC(=O)[C@@H]2CCCN2C(=O)CN(C)C(=O)[C@H](Cc2ccc(-c3ccccc3)cc2)NC(=O)[C@H](Cc2ccc(-c3ccccc3)cc2)NC(=O)[C@H](CN2CCOCC2)NC(=O)CSC[C@@H](C(=O)NCC(N)=O)NC1=O [Example 53] ({CH2CO}-[Ala(morpholin-4-yl)][Bip][Bip][Sar]PDR[Phe(2-F)]PVRLCG-NH2; thioether N-13), CC(C)C[C@@H]1NC(=O)[C@H](CCCNC(=N)N)NC(=O)[C@H](C(C)C)NC(=O)[C@@H]2CCCN2C(=O)[C@H](Cc2cccnc2)NC(=O)[C@H](CCCNC(=N)N)NC(=O)[C@H](CC(=O)O)NC(=O)[C@@H]2CCCN2C(=O)CN(C)C(=O)[C@H](Cc2ccc(-c3ccccc3)cc2)NC(=O)[C@H](Cc2ccc(-c3ccccc3)cc2)NC(=O)[C@H](CN2CCOCC2)NC(=O)CSC[C@@H](C(=O)NCC(N)=O)NC1=O [Example 54] ({CH2CO}-[Ala(morpholin-4-yl)][Bip][Bip][Sar]PDR[3Pal]PVRLCG-NH2; thioether N-13), CC(C)C[C@@H]1NC(=O)[C@H](CCCNC(=N)N)NC(=O)[C@H](C(C)C)NC(=O)[C@@H]2CCCN2C(=O)[C@H](Cc2ccc(N)cc2)NC(=O)[C@H](CCCNC(=N)N)NC(=O)[C@H](CC(=O)O)NC(=O)[C@@H]2CCCN2C(=O)CN(C)C(=O)[C@H](Cc2ccc(-c3ccccc3)cc2)NC(=O)[C@H](Cc2ccc(-c3ccccc3)cc2)NC(=O)[C@H](CN2CCOCC2)NC(=O)CSC[C@@H](C(=O)NCC(N)=O)NC1=O [Example 55] ({CH2CO}-[Ala(morpholin-4-yl)][Bip][Bip][Sar]PDR[Phe(4-NH2)]PVRLCG-NH2; thioether N-13), CC(C)C[C@@H]1NC(=O)[C@H](CCCNC(=N)N)NC(=O)[C@H](C(C)C)NC(=O)[C@@H]2CCCN2C(=O)[C@H](Cc2ccc(O)cc2)NC(=O)[C@H](CCCNC(=N)N)NC(=O)[C@H](CC(=O)O)NC(=O)[C@@H]2CCCN2C(=O)CN(C)C(=O)[C@H](Cc2ccc(-c3ccccc3)cc2)NC(=O)[C@H](Cc2ccc(-c3ccccc3)cc2)NC(=O)[C@H](CN2CCOCC2)NC(=O)CSC[C@@H](C(=O)NCC(N)=O)NC1=O [Example 56] ({CH2CO}-[Ala(morpholin-4-yl)][Bip][Bip][Sar]PDRYPVRLCG-NH2; thioether N-13), CC(C)C[C@@H]1NC(=O)[C@H](CCCNC(=N)N)NC(=O)[C@H](C(C)C)NC(=O)[C@@H]2CCCN2C(=O)[C@H](Cc2ccc(CN)cc2)NC(=O)[C@H](CCCNC(=N)N)NC(=O)[C@H](CC(=O)O)NC(=O)[C@@H]2CCCN2C(=O)CN(C)C(=O)[C@H](Cc2ccc(-c3ccccc3)cc2)NC(=O)[C@H](Cc2ccc(-c3ccccc3)cc2)NC(=O)[C@H](C(C)(C)O)NC(=O)CSC[C@@H](C(=O)NCC(N)=O)NC1=O [Example 57] ({CH2CO}-[Val(3-OH)][Bip][Bip][Sar]PDR[Phe(4-CH2NH2)]PVRLCG-NH2; thioether N-13), CC(C)C[C@@H]1NC(=O)[C@H](CCCNC(=N)N)NC(=O)[C@H](C(C)C)NC(=O)[C@@H]2CCCN2C(=O)[C@H](Cc2ccc(F)cc2)NC(=O)[C@H](CCCNC(=N)N)NC(=O)[C@H](CC(=O)O)NC(=O)[C@@H]2CCCN2C(=O)CN(C)C(=O)[C@H](Cc2ccc(-c3ccccc3)cc2)NC(=O)[C@H](Cc2ccc(-c3ccccc3)cc2)NC(=O)[C@H](C(C)(C)O)NC(=O)CSC[C@@H](C(=O)NCC(N)=O)NC1=O [Example 58] ({CH2CO}-[Val(3-OH)][Bip][Bip][Sar]PDR[Phe(4-F)]PVRLCG-NH2; thioether N-13), CC(C)C[C@@H]1NC(=O)[C@H](CCCNC(=N)N)NC(=O)[C@H](C(C)C)NC(=O)[C@@H]2CCCN2C(=O)[C@H](Cc2ccccc2F)NC(=O)[C@H](CCCNC(=N)N)NC(=O)[C@H](CC(=O)O)NC(=O)[C@@H]2CCCN2C(=O)CN(C)C(=O)[C@H](Cc2ccc(-c3ccccc3)cc2)NC(=O)[C@H](Cc2ccc(-c3ccccc3)cc2)NC(=O)[C@H](C(C)(C)O)NC(=O)CSC[C@@H](C(=O)NCC(N)=O)NC1=O [Example 59] ({CH2CO}-[Val(3-OH)][Bip][Bip][Sar]PDR[Phe(2-F)]PVRLCG-NH2; thioether N-13), CC(C)C[C@@H]1NC(=O)[C@H](CCCNC(=N)N)NC(=O)[C@H](C(C)C)NC(=O)[C@@H]2CCCN2C(=O)[C@H](Cc2cccnc2)NC(=O)[C@H](CCCNC(=N)N)NC(=O)[C@H](CC(=O)O)NC(=O)[C@@H]2CCCN2C(=O)CN(C)C(=O)[C@H](Cc2ccc(-c3ccccc3)cc2)NC(=O)[C@H](Cc2ccc(-c3ccccc3)cc2)NC(=O)[C@H](C(C)(C)O)NC(=O)CSC[C@@H](C(=O)NCC(N)=O)NC1=O [Example 60] ({CH2CO}-[Val(3-OH)][Bip][Bip][Sar]PDR[3Pal]PVRLCG-NH2; thioether N-13), CC(C)C[C@@H]1NC(=O)[C@H](CCCNC(=N)N)NC(=O)[C@H](C(C)C)NC(=O)[C@@H]2CCCN2C(=O)[C@H](Cc2ccc(N)cc2)NC(=O)[C@H](CCCNC(=N)N)NC(=O)[C@H](CC(=O)O)NC(=O)[C@@H]2CCCN2C(=O)CN(C)C(=O)[C@H](Cc2ccc(-c3ccccc3)cc2)NC(=O)[C@H](Cc2ccc(-c3ccccc3)cc2)NC(=O)[C@H](C(C)(C)O)NC(=O)CSC[C@@H](C(=O)NCC(N)=O)NC1=O [Example 61] ({CH2CO}-[Val(3-OH)][Bip][Bip][Sar]PDR[Phe(4-NH2)]PVRLCG-NH2; thioether N-13), CC(C)C[C@@H]1NC(=O)[C@H](Cc2ccc(O)cc2)NC(=O)[C@H](C(C)C)NC(=O)[C@@H]2CCCN2C(=O)[C@H](C(C)C)NC(=O)[C@@H](CCCNC(=N)N)NC(=O)[C@H](CC(=O)O)NC(=O)[C@H](Cc2ccc(O)cc2)NC(=O)CN(C)C(=O)[C@H](Cc2ccc(-c3ccccc3)cc2)NC(=O)[C@H](Cc2ccc(-c3ccccc3)cc2)NC(=O)[C@H](Cc2ccccc2)NC(=O)CSC[C@@H](C(=O)NCC(N)=O)NC1=O [Example 62] ({CH2CO}-F[Bip][Bip][Sar]YD[dR]VPVYLCG-NH2; thioether N-13), COc1cccc(C[C@@H]2NC(=O)[C@H](C(C)C)NC(=O)[C@@H]3CCCN3C(=O)[C@H](C(C)C)NC(=O)[C@H](CCCNC(=N)N)NC(=O)[C@H](CC(=O)O)NC(=O)[C@@H]3CCCN3C(=O)CN(C)C(=O)[C@H](Cc3ccc(-c4ccccc4)cc3)NC(=O)[C@H](Cc3ccc(-c4ccccc4)cc3)NC(=O)[C@H](Cc3ccccc3)NC(=O)CSC[C@@H](C(=O)NCC(N)=O)NC(=O)[C@H](CC(C)C)NC2=O)c1 [Example 63] ({CH2CO}-F[Bip][Bip][Sar]PDRVPV[Phe(3-OMe)]LCG-NH2; thioether N-13), CC(C)C[C@@H]1NC(=O)[C@H](Cc2ccc(O)cc2)NC(=O)[C@H](C(C)C)NC(=O)[C@@H]2CCCN2C(=O)[C@H](C(C)C)NC(=O)[C@H](CCCNC(=N)N)NC(=O)[C@H](CC(=O)O)NC(=O)[C@@H]2CCCN2C(=O)CN(C)C(=O)[C@H](Cc2ccc(-c3ccccc3)cc2)NC(=O)[C@H](Cc2ccc(-c3ccccc3)cc2)NC(=O)[C@H](C(C)(C)O)NC(=O)CSC[C@@H](C(=O)NCC(N)=O)NC1=O [Example 64] ({CH2CO}-[Val(3-OH)][Bip][Bip][Sar]PDRVPVYLCG-NH2; thioether N-13), CC(C)C[C@@H]1NC(=O)[C@H](CCCNC(=N)N)NC(=O)[C@H](C(C)C)NC(=O)[C@@H]2CCCN2C(=O)[C@H](C(C)C)NC(=O)[C@H](CCCNC(=N)N)NC(=O)[C@H](CC(=O)O)NC(=O)[C@H](Cc2ccc(O)cc2)NC(=O)CN(C)C(=O)[C@H](Cc2ccc(-c3ccccc3)cc2)NC(=O)[C@H](Cc2ccc(-c3ccccc3)cc2)NC(=O)[C@H](C(C)(C)O)NC(=O)CSC[C@@H](C(=O)NCC(N)=O)NC1=O [Example 65] ({CH2CO}-[Val(3-OH)][Bip][Bip][Sar]YDRVPVRLCG-NH2; thioether N-13), CC(C)C[C@@H]1NC(=O)[C@H](CCCNC(=N)N)NC(=O)[C@H](C(C)C)NC(=O)[C@@H]2CCCN2C(=O)[C@H](CC(N)=O)NC(=O)[C@H](CCCNC(=N)N)NC(=O)[C@H](CC(=O)O)NC(=O)[C@@H]2CCCN2C(=O)CN(C)C(=O)[C@H](Cc2ccc(-c3ccccc3)cc2)NC(=O)[C@H](Cc2ccc(-c3ccccc3)cc2)NC(=O)[C@H](CN2CCOCC2)NC(=O)CSC[C@@H](C(=O)NCC(N)=O)NC1=O [Example 67] ({CH2CO}-[Ala(morpholin-4-yl)][Bip][Bip][Sar]PDRNPVRLCG-NH2; thioether N-13), CC(C)C[C@@H]1NC(=O)[C@H](Cc2ccc(O)cc2)NC(=O)[C@H](C(C)C)NC(=O)[C@@H]2CCCN2C(=O)[C@H](C(C)C)NC(=O)[C@@H](CCCNC(=N)N)NC(=O)[C@H](CC(=O)O)NC(=O)[C@H](Cc2ccc(O)cc2)NC(=O)CN(C)C(=O)[C@H](Cc2ccc(-c3ccccc3)cc2)NC(=O)[C@H](Cc2ccc(-c3ccccc3)cc2)NC(=O)[C@H](CN2CCOCC2)NC(=O)CSC[C@@H](C(=O)NCC(N)=O)NC1=O [Example 68] ({CH2CO}-[Ala(morpholin-4-yl)][Bip][Bip][Sar]YD[dR]VPVYLCG-NH2; thioether N-13)
